{
  "sequences": {"note": "By UniProt entry, the sequences of proteins in these tests, tags left out.", "UniProt Q0JBA9, entry or part of it": "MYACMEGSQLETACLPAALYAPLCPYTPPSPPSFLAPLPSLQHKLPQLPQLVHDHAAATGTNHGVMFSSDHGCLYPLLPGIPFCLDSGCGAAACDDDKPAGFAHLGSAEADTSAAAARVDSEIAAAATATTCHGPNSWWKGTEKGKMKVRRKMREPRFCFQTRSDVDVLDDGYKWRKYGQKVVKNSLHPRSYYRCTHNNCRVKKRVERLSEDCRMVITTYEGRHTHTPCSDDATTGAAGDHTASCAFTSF"},
  "source": "paper PMC7819943",
  "about": "“Rice protein-binding microarrays: a tool to detect cis-acting elements near promoter regions in rice”",
  "note": "Some of the results follow.",
  "data": [
    {"target": "OsWRKY34 (Oryza sativa, UniProt Q0JBA9 1-250)", "assay": "protein-binding microarray (RPBM); PBS, 2% BSA, 51.3 ng/ul salmon testes DNA, 50 uM zinc acetate, 200 nM TF, 25 C, 1 h; high values mean tight binding", "details": "protein: recombinant; tags: N-terminal polyhistidine and DsRed monomer fusion (pET32a); label: CyDye5-dUTP incorporated in the synthesized complementary strand; 3' TTTTT single-stranded linker to array surface; dsDNA, one strand shown", "summary_of_the_method": "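Binding signal is reported as fluorescence intensity per feature (arbitrary units) from an Axon 4000B scanner. Incubation used 200 nM of each Ni–NTA-purified, N-terminally polyhistidine- and DsRed-fused transcription factor from E. coli BL21-CodonPlus on a double-stranded custom Agilent array for 1 h at 25 °C, with 50 µM zinc acetate in the buffer, followed by washing.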", "values": [
      {"sequence": "ACCTAATGTCTCAATGTCCTTATAAGCATTGTTTTGAGGACGGAGTCACCTAGTGCAG", "binding signal": "8230 fluorescence intensity (a.u.)"},
      {"sequence": "AGGTGTCTATCTTGCTGTGGCCATTAATTGGAACCAAAATCGGAGTCACCTAGTGCAG", "binding signal": "9240 fluorescence intensity (a.u.)"},
      {"sequence": "GCCAGTATTTTCAGAGATATCCTTTTGCAATTCGGTCCTTCGGAGTCACCTAGTGCAG", "binding signal": "8560 fluorescence intensity (a.u.)"},
      {"sequence": "GGCGCCATTTTGCTTCTCTTGCCGCTGGATTCTTGATTTTCGGAGTCACCTAGTGCAG", "binding signal": "10900 fluorescence intensity (a.u.)"},
      {"sequence": "ACATGAGGCAGCTTTCCATATCACCGTATCCATAGCCCATCGGAGTCACCTAGTGCAG", "binding signal": "8060 fluorescence intensity (a.u.)"},
      {"sequence": "TTTGTGTTATTCTACTTACAACCTCCGTGTCTTTATGTGACGGAGTCACCTAGTGCAG", "binding signal": "8580 fluorescence intensity (a.u.)"},
      {"sequence": "GCGATCTTCGCGGCTTCACCATCATACCTGCAACTGCAACCGGAGTCACCTAGTGCAG", "binding signal": "8220 fluorescence intensity (a.u.)"},
      {"sequence": "ATCAAACGTTCGATGTGACCCCAAAATTTTTCTATTCGCGCGGAGTCACCTAGTGCAG", "binding signal": "8360 fluorescence intensity (a.u.)"},
      {"sequence": "GAGGCGGGGAGGGAGGCAGGTTCGCGCGGATCTCGCGATGCGGAGTCACCTAGTGCAG", "binding signal": "10900 fluorescence intensity (a.u.)"},
      {"sequence": "CCGGTAGCTTGCTTGTGCTTCGTATCCATGGATCCTCACCCGGAGTCACCTAGTGCAG", "binding signal": "8320 fluorescence intensity (a.u.)"},
      {"sequence": "ATAGCAACATCGTCGACCTGCTCTGCTGCATCTCTAGCCACGGAGTCACCTAGTGCAG", "binding signal": "8270 fluorescence intensity (a.u.)"},
      {"sequence": "GCTTTTGACCAACCGCTCCGCACTAGCGGCCGCGCCGCGCCGGAGTCACCTAGTGCAG", "binding signal": "9770 fluorescence intensity (a.u.)"},
      {"sequence": "TTGTTTCGTATGTCTCTAGTGTGACTATTGCATGTACTTGCGGAGTCACCTAGTGCAG", "binding signal": "9180 fluorescence intensity (a.u.)"},
      {"sequence": "CGCATCCAGCTCATCTCCGTCGGCTGTCGCCCGTCTTCACCGGAGTCACCTAGTGCAG", "binding signal": "11700 fluorescence intensity (a.u.)"},
      {"sequence": "GCCATTCTCTTCTTCTTCTTCTTCTTCTTCTTCTTCTTCTCGGAGTCACCTAGTGCAG", "binding signal": "11300 fluorescence intensity (a.u.)"},
      {"sequence": "CGCCCGCGCGCCACCTGATTCGCATTCGCTCCATCCGCTTCGGAGTCACCTAGTGCAG", "binding signal": "9730 fluorescence intensity (a.u.)"},
      {"sequence": "CGACTGTGAATTGCCGTACACCTCCACTTCGCCAACTATCCGGAGTCACCTAGTGCAG", "binding signal": "9080 fluorescence intensity (a.u.)"},
      {"sequence": "TGTTTGCATGCTAAAGCTTTCATCTCTTCGTCGTCATCAGCGGAGTCACCTAGTGCAG", "binding signal": "8080 fluorescence intensity (a.u.)"},
      {"sequence": "TTATGCTCTTTAGTTTTTCTGCGCACGTTCTCCGATCAATCGGAGTCACCTAGTGCAG", "binding signal": "8060 fluorescence intensity (a.u.)"},
      {"sequence": "GTCTCGTTCTCGCCGCCTATATGTAGCGCCACCGATTCCCCGGAGTCACCTAGTGCAG", "binding signal": "9380 fluorescence intensity (a.u.)"},
      {"sequence": "TTACACGTGTACGAGTAGGCCGTCGCTCTCTCTATCATCCCGGAGTCACCTAGTGCAG", "binding signal": "8150 fluorescence intensity (a.u.)"},
      {"sequence": "AGCTCTTTCTTGATTAGATCATCTCATGCTTTGCCCAGTCCGGAGTCACCTAGTGCAG", "binding signal": "8400 fluorescence intensity (a.u.)"},
      {"sequence": "CCAGCATCATCACCGCATCACGTCCTCGTCGGCCTCCACGCGGAGTCACCTAGTGCAG", "binding signal": "11600 fluorescence intensity (a.u.)"},
      {"sequence": "CTCTTTGTGTTCAAAACCTTGTTTTCCTGTAGTCTTCTCTCGGAGTCACCTAGTGCAG", "binding signal": "8180 fluorescence intensity (a.u.)"},
      {"sequence": "CCAGTCAATTTCCCCACGTGCCATCTCGCTGCATCCGCCGCGGAGTCACCTAGTGCAG", "binding signal": "10500 fluorescence intensity (a.u.)"},
      {"sequence": "CCGCCGGGCTTCGCCATGTACGGTCACCGCGGGTAAGCCACGGAGTCACCTAGTGCAG", "binding signal": "8040 fluorescence intensity (a.u.)"},
      {"sequence": "ACCACCGCCGCCGCCGTCCCAGACACCAACTCCACCGCATCGGAGTCACCTAGTGCAG", "binding signal": "13400 fluorescence intensity (a.u.)"},
      {"sequence": "TCGATCGTCTTCCTTGTTGCGCGCGCGCGTTCTCTAATCGCGGAGTCACCTAGTGCAG", "binding signal": "9590 fluorescence intensity (a.u.)"},
      {"sequence": "CCAAGCTCACCCATGTTTCTCCCTACACATCTCTCTTCCACGGAGTCACCTAGTGCAG", "binding signal": "8350 fluorescence intensity (a.u.)"},
      {"sequence": "CGACGATGTTGTCCCCACTCCAGCCGCCGCCGTGCCTTTCCGGAGTCACCTAGTGCAG", "binding signal": "9230 fluorescence intensity (a.u.)"},
      {"sequence": "TACGCCCATGATGGTCTTACTAGTCAATTTTATTACTATTCGGAGTCACCTAGTGCAG", "binding signal": "10000 fluorescence intensity (a.u.)"},
      {"sequence": "ATTTAACTTTAACTTCCTCGTTTTCCGTTAGCACACTTTTCGGAGTCACCTAGTGCAG", "binding signal": "10300 fluorescence intensity (a.u.)"},
      {"sequence": "ATCAGCCGTGGTAATGGAGTTATGTCAGCCGTACGATCTACGGAGTCACCTAGTGCAG", "binding signal": "10100 fluorescence intensity (a.u.)"},
      {"sequence": "CTGTTTTTCTTATCTAGGAATATTTTTTTCCTGTTCAGATCGGAGTCACCTAGTGCAG", "binding signal": "8230 fluorescence intensity (a.u.)"},
      {"sequence": "AGCTTCCAAGTCAAGATATGGTCTCCACGTATTTCTCTCTCGGAGTCACCTAGTGCAG", "binding signal": "8290 fluorescence intensity (a.u.)"},
      {"sequence": "TGGTTTGGTTTGCACTTAATGTTCGTCACAGTTAAAGTGGCGGAGTCACCTAGTGCAG", "binding signal": "13600 fluorescence intensity (a.u.)"},
      {"sequence": "GGTTTCGTTTCGATTTTTCTTTTCTGGGTCCTTCATTCTCCGGAGTCACCTAGTGCAG", "binding signal": "8480 fluorescence intensity (a.u.)"},
      {"sequence": "TTAGGGTTTGTGTTAGTTTGTATTAGTACATGGATAGTAACGGAGTCACCTAGTGCAG", "binding signal": "8580 fluorescence intensity (a.u.)"},
      {"sequence": "AGTTGCACATGTCTACTTGTGATCTGTTATCTTGTCCATACGGAGTCACCTAGTGCAG", "binding signal": "9660 fluorescence intensity (a.u.)"},
      {"sequence": "CTTCGTCGCCATCCGATAAAGACTCCTCATCCAATAGCATCGGAGTCACCTAGTGCAG", "binding signal": "8340 fluorescence intensity (a.u.)"},
      {"sequence": "GCTTTCTATCAAAGCAGGGTTCTCTGCCTTTGTTTTCCAACGGAGTCACCTAGTGCAG", "binding signal": "10500 fluorescence intensity (a.u.)"},
      {"sequence": "CTCTCTCTCTCTCTCTCTCTCTCTCTCTGTTTTACTACAACGGAGTCACCTAGTGCAG", "binding signal": "13800 fluorescence intensity (a.u.)"}
    ]}
  ]
}
